In PMC10693155 one finds binding data, which are given here for one substance.

Chains of the proteins cited; added tags and fusions are not shown.
UniProt Q86TM6: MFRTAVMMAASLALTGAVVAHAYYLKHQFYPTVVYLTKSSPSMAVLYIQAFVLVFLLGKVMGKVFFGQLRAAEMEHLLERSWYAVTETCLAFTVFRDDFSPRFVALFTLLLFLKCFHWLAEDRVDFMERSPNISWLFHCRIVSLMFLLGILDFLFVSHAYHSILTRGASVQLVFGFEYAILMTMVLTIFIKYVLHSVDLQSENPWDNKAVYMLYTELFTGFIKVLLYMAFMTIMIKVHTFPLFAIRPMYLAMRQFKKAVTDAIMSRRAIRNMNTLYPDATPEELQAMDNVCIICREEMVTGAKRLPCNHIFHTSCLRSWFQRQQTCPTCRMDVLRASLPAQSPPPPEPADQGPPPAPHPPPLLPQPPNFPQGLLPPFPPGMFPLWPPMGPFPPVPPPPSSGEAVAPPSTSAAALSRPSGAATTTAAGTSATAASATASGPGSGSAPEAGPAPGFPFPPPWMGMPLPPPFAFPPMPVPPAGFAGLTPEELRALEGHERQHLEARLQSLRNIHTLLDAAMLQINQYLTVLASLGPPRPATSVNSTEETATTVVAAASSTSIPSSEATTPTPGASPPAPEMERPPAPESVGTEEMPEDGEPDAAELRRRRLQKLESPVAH

No constants are given. Whether binding was seen depends on the method and setting. Binding seen in cells or lysates may run through a third protein. Some binding calls cover weakened binding; strength is not graded here.

This assay addresses T1, SIRT2 (Sirtuin 2) (human (endogenous in BEAS-2B)) (UniProt Q8IXJ6).
T1 sequence: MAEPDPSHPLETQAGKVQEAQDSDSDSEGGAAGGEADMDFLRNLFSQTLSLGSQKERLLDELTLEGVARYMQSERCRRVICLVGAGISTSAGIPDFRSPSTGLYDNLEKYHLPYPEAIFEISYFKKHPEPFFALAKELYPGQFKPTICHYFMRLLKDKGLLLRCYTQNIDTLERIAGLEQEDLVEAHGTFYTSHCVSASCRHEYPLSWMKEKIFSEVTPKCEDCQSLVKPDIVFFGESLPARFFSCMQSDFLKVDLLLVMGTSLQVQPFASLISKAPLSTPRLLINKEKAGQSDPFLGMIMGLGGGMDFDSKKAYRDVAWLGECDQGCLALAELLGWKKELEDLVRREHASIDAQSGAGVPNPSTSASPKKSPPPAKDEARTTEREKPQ
The experiment in a line: co-IP; Pierce Co-IP kit; BEAS-2B cells pretreated with 10 µM MG132 for 6 h, lysed in immunoprecipitation buffer; SIRT2 antibody immobilised on AminoLink Plus Coupling Resin; Western blot for SYVN1; cells with or without TGF-β1 treatment. (In general: Immunoblotting shows a protein as a band on a membrane.)

Regarding “SYVN1 (Synoviolin 1) (from UniProt Q86TM6 1-617)”, the binding entry is on record as “binds”.
